Screen size: about 330,000 compounds; about 7,700 (2.3%) were called active. Only results without a clear call are listed here; the source files them as inconclusive. Calls follow the shape of the dose curve; as a rule, active = well fitted inhibition curve with a large enough effect; inconclusive = small, poorly fitted or top-dose-only effect, or effect the other way; inactive = flat fitted curve, though single readings scatter.
Assay: qHTS screen for small molecules that inhibit ELG1-dependent DNA repair in human embryonic kidney (HEK293T) cells expressing luciferase-tagged ELG1; also: nearly all actives have a fitted effect of over 55% in size
Conditions: HEK293T ELG1-luciferase reporter, luminescence, 16 h; DNA damage induced by 5-fluorouridine
Potency is read from the fitted curve at half-maximal effect.

Structure (SMILES) | Potency
CN(C)C(=O)c1c([N+](=O)[O-])cc([N+](=O)[O-])cc1[N+](=O)[O-] | inconclusive: 18.3 µM
CCOC(=O)c1ccc(NP(C)(=O)Oc2ccc(Cl)cc2)cc1 (configuration not stated) | inconclusive: 16.4 µM
Cc1nc2ccc3ccccc3c2o1.O=[N+]([O-])c1cc([N+](=O)[O-])c(O)c([N+](=O)[O-])c1 | inconclusive: 29.1 µM
O=[N+]([O-])c1cc([N+](=O)[O-])c(Nc2ccccn2)c([N+](=O)[O-])c1 | inconclusive: 20.6 µM
Cc1cc(-c2cccc3ccccc23)c(C)cn1.O=[N+]([O-])c1cc([N+](=O)[O-])c(O)c([N+](=O)[O-])c1 | inconclusive: 20.6 µM
CP(=O)(Nc1ccc(SC(F)(F)F)cc1)Oc1ccc(F)cc1 (configuration not stated) | inconclusive: 29.1 µM
O=[N+]([O-])c1cc([N+](=O)[O-])c(Nc2nnnn2CCO)c([N+](=O)[O-])c1 | inconclusive: 16.4 µM
CCOC(=O)c1ccc(NP(C)(=O)Oc2cc(C)cc(C)c2)cc1 (configuration not stated) | inconclusive: 29.1 µM
O=[N+]([O-])c1cc([N+](=O)[O-])c(Nc2cccnc2)c([N+](=O)[O-])c1 | inconclusive: 3.16 µM
O=[N+]([O-])c1ccc2c(c1)C=Nc1ccccc1O2 | inconclusive: 16.4 µM
CCOP(C)(=S)SCC(=O)NC(C)C(=O)O (configuration not stated) | inconclusive: 5.62 µM
Cc1cccc(C)c1OP(C)(=O)Nc1ccc(SC(F)(F)F)cc1 (configuration not stated) | inconclusive: 9.2 µM

— PubChem BioAssay AID504467 (National Center for Advancing Translational Sciences (NCATS), 2011)
